Article PMC4941268
Results are given in words; binding and its absence hold for the method and conditions named. In cells and extracts the contact can be indirect. Some binding calls cover weakened binding; strength is not graded here. For some of these results: Tags and fused reporters may be left off the sequences shown.

Sequences of proteins named here, by UniProt entry; tags and fusion partners are left off. A change or cut given only in a name is not applied to a line headed by its entry.
UniProt P02545: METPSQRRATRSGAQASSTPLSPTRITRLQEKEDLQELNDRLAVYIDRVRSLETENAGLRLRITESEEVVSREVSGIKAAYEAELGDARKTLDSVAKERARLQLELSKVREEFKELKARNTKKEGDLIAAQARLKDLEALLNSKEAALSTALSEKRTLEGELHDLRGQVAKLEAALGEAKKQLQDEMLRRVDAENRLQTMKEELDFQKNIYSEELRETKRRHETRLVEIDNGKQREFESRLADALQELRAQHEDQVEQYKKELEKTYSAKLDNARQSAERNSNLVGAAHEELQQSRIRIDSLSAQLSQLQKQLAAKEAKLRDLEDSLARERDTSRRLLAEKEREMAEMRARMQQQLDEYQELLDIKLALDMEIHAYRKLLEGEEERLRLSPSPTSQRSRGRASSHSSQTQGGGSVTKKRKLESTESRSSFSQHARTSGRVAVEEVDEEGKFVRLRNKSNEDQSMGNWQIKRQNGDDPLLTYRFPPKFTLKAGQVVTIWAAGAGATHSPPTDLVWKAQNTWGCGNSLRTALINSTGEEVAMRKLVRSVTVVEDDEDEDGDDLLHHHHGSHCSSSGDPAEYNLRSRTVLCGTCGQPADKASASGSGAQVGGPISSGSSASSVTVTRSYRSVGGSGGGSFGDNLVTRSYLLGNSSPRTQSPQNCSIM
UniProt P45973: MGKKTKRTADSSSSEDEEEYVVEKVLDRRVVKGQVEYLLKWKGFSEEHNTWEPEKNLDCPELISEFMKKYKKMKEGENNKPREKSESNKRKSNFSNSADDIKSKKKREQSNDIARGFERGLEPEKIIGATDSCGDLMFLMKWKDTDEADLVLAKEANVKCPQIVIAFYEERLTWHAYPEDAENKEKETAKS

How the values were obtained:
[1] = biological target: FLAG-tagged prelamin A (LA-C661M) (UniProt P02545); test: co-IP; anti-FLAG immunoprecipitation from HEK293 cells cotransfected with FLAG-lamin constructs and GFP-BAF-WT, BAF-A12T or BAF-G47E; cells fixed in 1% formaldehyde 10 min at room temperature, lysed in 1% SDS, 10 mM EDTA, 50 mM Tris-HCl pH 8.0, glass beads and sonication; IP overnight at 4°C; blots for FLAG, GFP, HP1α and LAP2α
[2] = biological target: full length FLAG-tagged prelamin A (LA-WT) (UniProt P02545); test: as above
[3] = biological target: FLAG-tagged prelamin A (LA-C661M) (UniProt P02545); test: co-IP; anti-FLAG immunoprecipitation from cotransfected HEK293 cells (FLAG-lamin A constructs with GFP-BAF constructs), 24 h after transfection; lysis in 50 mM TRIS-HCl pH 8.0, 150 mM NaCl, 1% NP40, 0.1% SDS; antibody overnight at 4°C, protein A/G; blots for FLAG and GFP
[4] = biological target: full length FLAG-tagged prelamin A (LA-WT) (UniProt P02545); test: as above

Row | binding [1] | binding [2] | binding [3] | binding [4] | Molecule
1 | binds | binds | – | – | HP1-alpha (from UniProt P45973 1-191)
2 | – | – | binds | binds | GFP-tagged wild type BAF (BAF-WT) (protein, UniProt O75531 1-89) MTTSQKHRDFVAEPMGEKPVGSLAGIGEVLGKKLEERGFDKAYVVLGQFLVLKKDEDLFREWLKDTCGANAKQSRDCFGCLREWCDAFL
3 | – | – | binds weakly | binds weakly | GFP-tagged BAF mutant BAF-G47E (protein, UniProt O75531 1-89) MTTSQKHRDFVAEPMGEKPVGSLAGIGEVLGKKLEERGFDKAYVVLEQFLVLKKDEDLFREWLKDTCGANAKQSRDCFGCLREWCDAFL
4 | – | – | binds | binds | GFP-tagged NGPS-BAF mutant (BAF-A12T) (protein, UniProt O75531 1-89) MTTSQKHRDFVTEPMGEKPVGSLAGIGEVLGKKLEERGFDKAYVVLGQFLVLKKDEDLFREWLKDTCGANAKQSRDCFGCLREWCDAFL
5 | binds | binds | – | – | LAP2-alpha (protein, UniProt P42166 1-694) MPEFLEDPSVLTKDKLKSELVANNVTLPAGEQRKDVYVQLYLQHLTARNRPPLPAGTNSKGPPDFSSDEEREPTPVLGSGAAAAGRSRAAVGRKATKKTDKPRQEDKDDLDVTELTNEDLLDQLVKYGVNPGPIVGTTRKLYEKKLLKLREQGTESRSSTPLPTISSSAENTRQNGSNDSDRYSDNEEGKKKEHKKVKSTRDIVPFSELGTTPSGGGFFQGISFPEISTRPPLGSTELQAAKKVHTSKGDLPREPLVATNLPGRGQLQKLASERNLFISCKSSHDRCLEKSSSSSSQPEHSAMLVSTAASPSLIKETTTGYYKDIVENICGREKSGIQPLCPERSHISDQSPLSSKRKALEESESSQLISPPLAQAIRDYVNSLLVQGGVGSLPGTSNSMPPLDVENIQKRIDQSKFQETEFLSPPRKVPRLSEKSVEERDSGSFVAFQNIPGSELMSSFAKTVVSHSLTTLGLEVAKQSQHDKIDASELSFPFHESILKVIEEEWQQVDRQLPSLACKYPVSSREATQILSVPKVDDEILGFISEATPLGGIQAASTESCNQQLDLALCRAYEAAASALQIATHTAFVAKAMQADISQAAQILSSDPSRTHQALGILSKTYDAASYICEAAFDEVKMAAHTMGNATVGRRYLWLKDCKINLASKNKLASTPFKGGTLFGGEVCKVIKKRGNKH
